Library screen at single concentrations

Amino acid sequences for entries named in this document (tags omitted). Residues count along the entry.
UniProt Q4DA54, 1-478: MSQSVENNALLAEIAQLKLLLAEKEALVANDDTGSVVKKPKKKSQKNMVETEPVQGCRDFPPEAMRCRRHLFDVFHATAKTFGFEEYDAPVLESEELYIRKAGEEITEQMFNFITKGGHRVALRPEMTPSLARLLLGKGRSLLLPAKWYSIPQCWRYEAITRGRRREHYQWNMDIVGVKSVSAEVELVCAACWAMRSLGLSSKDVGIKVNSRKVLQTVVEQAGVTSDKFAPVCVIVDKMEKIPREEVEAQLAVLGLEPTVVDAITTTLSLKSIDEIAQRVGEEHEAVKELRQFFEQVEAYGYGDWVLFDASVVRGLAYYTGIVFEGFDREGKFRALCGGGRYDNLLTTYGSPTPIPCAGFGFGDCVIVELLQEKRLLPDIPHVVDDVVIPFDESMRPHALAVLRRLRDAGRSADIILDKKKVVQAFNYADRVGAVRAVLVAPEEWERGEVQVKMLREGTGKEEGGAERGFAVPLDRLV
UniProt A4I591, 1-473: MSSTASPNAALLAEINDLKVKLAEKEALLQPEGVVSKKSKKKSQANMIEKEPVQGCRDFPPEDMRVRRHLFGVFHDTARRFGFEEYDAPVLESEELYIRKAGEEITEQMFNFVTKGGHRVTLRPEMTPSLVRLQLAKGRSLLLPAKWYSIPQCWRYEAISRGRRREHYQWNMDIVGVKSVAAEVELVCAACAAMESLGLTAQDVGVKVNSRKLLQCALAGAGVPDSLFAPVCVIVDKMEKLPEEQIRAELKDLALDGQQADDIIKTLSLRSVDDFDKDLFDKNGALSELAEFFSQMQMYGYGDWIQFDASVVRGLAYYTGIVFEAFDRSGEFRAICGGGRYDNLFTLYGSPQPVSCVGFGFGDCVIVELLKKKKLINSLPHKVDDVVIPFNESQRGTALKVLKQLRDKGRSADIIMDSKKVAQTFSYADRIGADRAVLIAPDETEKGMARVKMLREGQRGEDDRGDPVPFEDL

Data taken from ChEMBL document CHEMBL3988442, “University of Dundee, Small-Polar-MMV Screening Library” (2021).

TcHisRS: 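Histidine-tRNA ligase, Trypanosoma cruzi CL Brener (UniProt Q4DA54). Enzyme assay of histidyl-tRNA synthetase; the read-out is not stated. Tested at 30 µM. Direction is inferred from retests: higher values go with stronger inhibition. Of about 69,000 compounds tested this way, about 31 (0.045%) reached 50% or more in at least one test.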
LiHisRS: 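Histidine-tRNA ligase, Leishmania infantum (UniProt A4I591). Enzyme assay of histidyl-tRNA synthetase; the read-out is not stated. Compounds at 30 µM. The record gives no direction; compounds that gave an IC50 in retests scored well above the rest, so higher reads as stronger inhibition. The assay is labelled LdHisRS but filed under L. infantum. Of about 69,000 compounds tested this way, about 410 (0.6%) reached 50% or more in at least one test.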

Results are given as percent effect.
The controls that fix the scale are not given in the record; negative values are as filed.
The compounds are a random part of those screened.

SMILES,TcHisRS,LiHisRS
Cc1csc(C(=O)NCCn2nc(-n3cncn3)ccc2=O)c1,10,10.87
CCc1cnc2c(c1Nc1ccc3c(c1)OCO3)c(=O)n(C)c(=O)n2C,11.56,20.22
COCCNC(=O)c1ccc2c(=O)n3c(nc2c1)CCCCC3,8.537,18.42
CCNc1cc2c(nn1)CCN(C(=O)c1cc3ccccc3[nH]c1=O)C2,12.61,22.81
CCN1CCCC(CN(C)c2nccc(-c3ccc(C)nc3C)n2)C1 (stereo unspecified),9.091,18.09
CC(=O)NC(Cc1c[nH]c2cc(F)ccc12)C(=O)Nc1nncs1 (stereo unspecified),7.006,29.58
COc1ccc(N2CCN(CC(O)c3cc(C)ccc3C)CC2)cc1 (stereo unspecified),2.439,18.42
CC(C)Cc1ncc2c(n1)CN(c1cc(NC3CC3)nc(N)n1)C2,-39.18,22.86
CN(CC1CCCCC1)C(=O)c1cn(C)nc1-c1cccnc1,7.563,15.79
Cc1ccn(CC(=O)NCCCOc2ccccc2F)c(=O)c1,6.931,9.524
OC(COCc1ccco1)CN1CCc2c(ncn2C2CC2)C1 (stereo unspecified),5.65,13.79
COc1ccc2[nH]cc(-c3ccnc(N4CCC(C)CC4)n3)c2c1,24.86,14.29
CN1CCN(c2ncccc2N)CC1,15.62,12.5
Cc1cccnc1N1CC2(CCN(Cc3cnn(C)c3)C2)C1,0.9709,7.692
COc1cccc(-n2nc(C(C)=O)c(C(C)=O)c2C)c1,1.031,1.099
CN(Cc1ncc(-c2ccccc2)o1)C1CCCN(c2cccnn2)C1 (stereo unspecified),10.83,30.19
C/C=C(\C)CN1C[C@H](NC(=O)c2cnc(O)cn2)C[C@H]1C(=O)NCC,13.16,12.5
Cc1nc(-c2ccsc2)ccc1C(=O)NCCN1CCN(C)CC1,5.917,19.64
COC(=O)c1cccn1C1CCN(C(=O)c2c(C)noc2C)CC1,-0.5747,5.217
CS(=O)(=O)N1CCc2ccc(=O)n(CC3CCOCC3)c2CC1,1.075,6.195
Cc1ccc2c(cnn2CCC(=O)NCc2csc(C)n2)c1,7.216,10.34
O=C(O)c1ccccc1-n1cnc(CN2CCc3ccccc32)c1,7.752,7.092
O=C(c1csc(-c2ccc(C(F)(F)F)cc2)n1)N1CCCNCC1,5.579,18.03
CCc1nc2n(n1)CC(NCc1noc(-c3ccccc3)n1)CC2 (stereo unspecified),-0.7576,16.67
Cc1ncsc1C(=O)NC1CCN(CC(=O)N(C)C(C)(C)C#N)CC1,0,-4.545
CC(O)CN1CCc2onc(C(c3ccccc3)c3ccccc3)c2C1 (stereo unspecified),5.882,8.901
Cn1cnnc1S(=O)(=O)C1CCN(S(=O)(=O)c2ccc(F)c(Cl)c2)CC1,4.132,0
CCc1nnc(CN2CCOC(Cn3cccn3)C2)o1 (stereo unspecified),5.143,5.085
Cc1cccc(S(=O)(=O)NCC2CCN(c3cnccn3)CC2)c1,4,8.219
Cc1cccc(C(=O)N2C[C@@H]3[C@H](CC(=O)NC(C)C)[C@@H]3C2)n1,4.854,15.53
Cc1ccc(NC(=O)N2CCOC(C)C2)cc1Cl (stereo unspecified),0,13.33
CC(C)n1ccnc1CN1CCCN(C(=O)CC2C=CCC2)CC1 (stereo unspecified),1.88,-8.108
CC(C)Nc1cc(N2CCCC3(CN(C)C(=O)O3)C2)ncn1 (stereo unspecified),-3.448,15.38
Cc1nc(-c2nc(C(=O)N(C)C)c3ccccn23)cn1C(C)C,1.508,0
Cc1noc(C)c1CN(C)CC1CC(C2CCCCC2)=NO1 (stereo unspecified),3.804,13.33
Oc1ccc(Cl)cc1CNCc1cccc(C(F)(F)F)c1,6.736,6.452
CCSCCNc1cc(C)nc2c(C)c(C)nn12,6.061,18.09
CN1CCCN(C(=O)NCCNc2ncccc2C#N)CC1,5.911,15.07
CCc1ccc2nc(C)cc(C(=O)NC[C@@H]3CCNC[C@H]3O)c2c1,9.877,17.65
CSCCN(C)C(=O)C1(c2ccc(F)cc2F)CCOCC1,5.464,10.96
COc1ccc(OC)c(CNCc2ccnc(N3CCCCC3)c2)c1,15.54,23.15
CCCS(=O)(=O)NC(C)c1cccc(-n2cccn2)c1 (stereo unspecified),1.961,15.97
CC(C)Oc1cc(N2CCCC(O)C2)nc(N)n1 (stereo unspecified),1.058,-27.27
Cc1csc(N2CCN(C(=O)CCc3ccccn3)CC2)n1,-2.256,23.81
c1ccc(NC[C@@H]2CCC[C@@H]3CN(Cc4csnn4)C[C@@H]32)nc1,13.04,35.53
O=C(c1cnccn1)N1CCN(Cc2csc(-c3ccccc3)n2)CC1,2.682,-6.154
CNC(=O)c1nc(CN2CCOC(C(F)(F)F)C2)no1 (stereo unspecified),-7.182,1.408
CC(C)c1cc(N2CCC(NS(C)(=O)=O)CC2)n2nccc2n1,6.122,11.11
NC(=O)CC1CCN(C(=O)NCC2(c3ccccc3F)CC2)CC1,1.724,7.895
c1cncc(-c2nnc([C@H]3CCN(CC4CCCCC4)C3)o2)c1,10.89,25
COCCN(C(=O)c1cnccn1)c1nc2c(s1)CCc1c-2cnn1C,5.319,51.04
CS(=O)(=O)N[C@@H]1CCN(Cc2nccs2)[C@H]1Cc1ccncc1,4.908,11.97
Cc1cc(C)c(CNC(=O)NCc2cc(F)cc(F)c2)c(=O)[nH]1,6.358,13.16
CSc1ccc(C)c(C(=O)Nc2c(C(N)=O)n[nH]c2C)c1,0.5525,5.181
COc1cc(OC)cc(-c2noc(CC(N)c3ccccc3)n2)c1 (stereo unspecified),6.736,10.11
O=C1N(c2ccccc2)Cc2n[nH]c(=O)n21,6.173,-4.301
CCNS(=O)(=O)C1CCN(C(=O)c2ccc(F)cc2)C1 (stereo unspecified),3.191,6.25
CN(C)C(C(=O)N1CCC(C#N)CC1)c1ccccc1F (stereo unspecified),4.233,12.12
Cc1nnsc1-c1nnc2sc(C3CCC3)nn12,-17.1,-88.76
COc1ccc(CNC(C)c2ccc(Cl)cc2)c(OC)c1OC (stereo unspecified),8.333,4.464
CC1(C(=O)NCc2cccc(C(F)(F)F)c2)CCOCC1,2.959,1.379
Cc1cccc(CS(=O)(=O)NCc2nn(C)c3c2COCC3)c1,0.5181,6.452

Once more, the final 4:

- Cc1nnsc1-c1nnc2sc(C3CCC3)nn12 : TcHisRS: -17.1%; LiHisRS: -88.76%
- COc1ccc(CNC(C)c2ccc(Cl)cc2)c(OC)c1OC (stereo unspecified) : TcHisRS: 8.333%; LiHisRS: 4.464%
- CC1(C(=O)NCc2cccc(C(F)(F)F)c2)CCOCC1 : TcHisRS: 2.959%; LiHisRS: 1.379%
- Cc1cccc(CS(=O)(=O)NCc2nn(C)c3c2COCC3)c1 : TcHisRS: 0.5181%; LiHisRS: 6.452%